The supplement of paper PMC8728848
Some of the results follow.

Experiments:
Assay in all cases: glycan array binding signal (z-score within array); higher = stronger binding
Settings in all cases: glycan notation: IUPAC condensed, linker removed
[1] = biological target: Man(a1-2)Man(a1-3)[Man(a1-2)Man(a1-6)]Man(a1-6)[Man(a1-2)Man(a1-2)Man(a1-3)]Man(b1-4)GlcNAc(b1-4)GlcNAc
Summary of the method: (§1)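 Glycan array binding is given as a within-array Z-score, which can be read as non-binding when negative. The arrays, 3228 of them, came from the Consortium for Functional Glycomics database and were retained only where the protein sequence was available. Z-scores were averaged across arrays of the same protein sequence at different concentrations or buffers and across linkers.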

[2] = biological target: Man(a1-2)Man(a1-3)[Man(a1-6)]Man(a1-6)[Man(a1-2)Man(a1-3)]Man(b1-4)GlcNAc(b1-4)GlcNAc
Summary of the method: as §1

[3] = biological target: Man(a1-2)Man(a1-6)[Man(a1-3)]Man(a1-6)[Man(a1-2)Man(a1-2)Man(a1-3)]Man
Summary of the method: as §1

[4] = biological target: Man(a1-2)Man(a1-6)[Man(a1-3)]Man(a1-6)[Man(a1-2)Man(a1-2)Man(a1-3)]Man(b1-4)GlcNAc(b1-4)GlcNAc
Summary of the method: as §1

Man(a1-3)[Man(a1-6)]Man = biological target: Man(a1-3)[Man(a1-6)]Man
Summary of the method: as §1

[5] = biological target: Man(a1-3)[Man(a1-6)]Man(a1-6)[Man(a1-2)Man(a1-3)]Man(b1-4)GlcNAc(b1-4)GlcNAc
Summary of the method: as §1

[6] = biological target: Man(a1-3)[Man(a1-6)]Man(a1-6)[Man(a1-3)]Man
Summary of the method: as §1

[7] = biological target: Man(a1-3)[Man(a1-6)]Man(a1-6)[Man(a1-3)]Man(b1-4)GlcNAc(b1-4)GlcNAc
Summary of the method: as §1

[8] = biological target: Man(a1-3)[Man(a1-6)]Man(b1-4)GlcNAc(b1-4)GlcNAc
Summary of the method: as §1

[9] = biological target: Man(a1-3)[Man(a1-6)]Man(b1-4)GlcNAc(b1-4)[Fuc(a1-6)]GlcNAc
Summary of the method: as §1

Man(a1-6)Man = biological target: Man(a1-6)Man
Summary of the method: as §1

Man(b1-4)GlcNAc = biological target: Man(b1-4)GlcNAc
Summary of the method: as §1

MurNAc(b1-4)GlcNAc = biological target: MurNAc(b1-4)GlcNAc
Summary of the method: as §1

Neu5Ac(a2-3)Gal = biological target: Neu5Ac(a2-3)Gal
Summary of the method: as §1

[10] = biological target: Neu5Ac(a2-3)Gal(b1-3)GalNAc
Summary of the method: as §1

[11] = biological target: Neu5Ac(a2-3)Gal(b1-3)GalNAc(b1-3)Gal(a1-4)Gal(b1-4)Glc
Summary of the method: as §1

[12] = biological target: Neu5Ac(a2-3)Gal(b1-3)GalNAc(b1-4)[Neu5Ac(a2-3)]Gal(b1-4)Glc
Summary of the method: as §1

[13] = biological target: Neu5Ac(a2-3)Gal(b1-3)GalNAc(b1-4)[Neu5Ac(a2-8)Neu5Ac(a2-3)]Gal(b1-4)Glc
Summary of the method: as §1

[14] = biological target: Neu5Ac(a2-3)Gal(b1-3)GalNAc6S
Summary of the method: as §1

[15] = biological target: Neu5Ac(a2-3)Gal(b1-3)GlcNAc
Summary of the method: as §1

[16] = biological target: Neu5Ac(a2-3)Gal(b1-3)GlcNAc(b1-2)Man
Summary of the method: as §1

[17] = biological target: Neu5Ac(a2-3)Gal(b1-3)GlcNAc(b1-2)Man(a1-3)[GlcNAc(b1-4)][Neu5Ac(a2-3)Gal(b1-3)GlcNAc(b1-2)Man(a1-6)]Man(b1-4)GlcNAc(b1-4)GlcNAc
Summary of the method: as §1

[18] = biological target: Neu5Ac(a2-3)Gal(b1-3)GlcNAc(b1-2)Man(a1-3)[Neu5Ac(a2-3)Gal(b1-3)GlcNAc(b1-2)Man(a1-6)]Man(b1-4)GlcNAc(b1-4)GlcNAc
Summary of the method: as §1

[19] = biological target: Neu5Ac(a2-3)Gal(b1-3)GlcNAc(b1-3)Gal(b1-3)GlcNAc
Summary of the method: as §1

[20] = biological target: Neu5Ac(a2-3)Gal(b1-3)GlcNAc(b1-3)Gal(b1-4)GlcNAc
Summary of the method: as §1

[21] = biological target: Neu5Ac(a2-3)Gal(b1-3)GlcNAc(b1-3)GalNAc
Summary of the method: as §1

[22] = biological target: Neu5Ac(a2-3)Gal(b1-3)GlcNAc(b1-4)Gal(b1-4)Glc
Summary of the method: as §1

[23] = biological target: Neu5Ac(a2-3)Gal(b1-3)GlcNAc(b1-6)GalNAc
Summary of the method: as §1

[24] = biological target: Neu5Ac(a2-3)Gal(b1-3)GlcNAc6S
Summary of the method: as §1

[25] = biological target: Neu5Ac(a2-3)Gal(b1-3)[Fuc(a1-4)]GlcNAc
Summary of the method: as §1

[26] = biological target: Neu5Ac(a2-3)Gal(b1-3)[Fuc(a1-4)]GlcNAc(b1-3)Gal(b1-3)[Fuc(a1-4)]GlcNAc
Summary of the method: as §1

[27] = biological target: Neu5Ac(a2-3)Gal(b1-3)[Fuc(a1-4)]GlcNAc(b1-3)Gal(b1-4)[Fuc(a1-3)]GlcNAc
Summary of the method: as §1

[28] = biological target: Neu5Ac(a2-3)Gal(b1-3)[GlcNAc(b1-6)]GalNAc
Summary of the method: as §1

[29] = biological target: Neu5Ac(a2-3)Gal(b1-3)[Neu5Ac(a2-6)]GalNAc
Summary of the method: as §1

[30] = biological target: Neu5Ac(a2-3)Gal(b1-3)[Neu5Ac(a2-6)]GlcNAc(b1-3)[Fuc(a1-3)[Gal(b1-4)]GlcNAc(b1-6)]Gal(b1-4)Glc
Summary of the method: as §1

[31] = biological target: Neu5Ac(a2-3)Gal(b1-3)]Neu5Ac(a2-3)Gal(b1-4)]GlcNAc
Summary of the method: as §1

Neu5Ac(a2-3)Gal(b1-4)Glc = biological target: Neu5Ac(a2-3)Gal(b1-4)Glc
Summary of the method: as §1

B1: FliC (Clostridium difficile) (protein)
chain: MRVNTNVSALIANNQMGRNVNGQSKSMEKLSSGVRIKRAADDAAGLAISEKMRAQIKGLDQAGRNVQDGISVVQTAEGSLEETGNILQRMRTLSLQSANEINNTEEREKIADELTQLKDEIERISSSTEFNGKKLLDGTSSTIRLQVGASYGTNVSGTSNNNNEIKIQLVNTASIMASAGITTASIGSMKAGGTTGTDAAKTMVSSLDAALKSLNSSRAKLGAQQNRLESTQNNLNNTLENVTAAESRIRDTDVASEMVNLSKMNILVQASQSMLAQANQQPQGVLQLLG
**Q.** What does the source list for B1?
**A.** glycan array binding signal (z-score) [1]: 0.156; glycan array binding signal (z-score) [2]: 0.653; glycan array binding signal (z-score) [3]: 0.153; glycan array binding signal (z-score) [4]: -0.576; glycan array binding signal (z-score) (Man(a1-3)[Man(a1-6)]Man): -0.471; glycan array binding signal (z-score) [5]: 3.18; glycan array binding signal (z-score) [6]: -0.284; glycan array binding signal (z-score) [7]: 0.124; glycan array binding signal (z-score) [8]: -0.344; glycan array binding signal (z-score) [9]: 0.353; glycan array binding signal (z-score) (Man(a1-6)Man): 0.475; glycan array binding signal (z-score) (Man(b1-4)GlcNAc): -0.046; glycan array binding signal (z-score) (MurNAc(b1-4)GlcNAc): 0.369; glycan array binding signal (z-score) (Neu5Ac(a2-3)Gal): -0.755; glycan array binding signal (z-score) [10]: 0.082; glycan array binding signal (z-score) [11]: -0.338; glycan array binding signal (z-score) [12]: 0.023; glycan array binding signal (z-score) [13]: 1.72; glycan array binding signal (z-score) [14]: -0.509; glycan array binding signal (z-score) [15]: -0.513; glycan array binding signal (z-score) [16]: -0.496; glycan array binding signal (z-score) [17]: 0.514; glycan array binding signal (z-score) [18]: 0.337; glycan array binding signal (z-score) [19]: -0.381; glycan array binding signal (z-score) [20]: -0.428; glycan array binding signal (z-score) [21]: -0.618; glycan array binding signal (z-score) [22]: 0.17; glycan array binding signal (z-score) [23]: -0.886; glycan array binding signal (z-score) [24]: -0.405; glycan array binding signal (z-score) [25]: -0.945; glycan array binding signal (z-score) [26]: -0.186; glycan array binding signal (z-score) [27]: 0.087; glycan array binding signal (z-score) [28]: 0.028; glycan array binding signal (z-score) [29]: -0.163; glycan array binding signal (z-score) [30]: -0.645; glycan array binding signal (z-score) [31]: -0.68; glycan array binding signal (z-score) (Neu5Ac(a2-3)Gal(b1-4)Glc): 0.117
